Positions count from the first letter of the chain named. These are yes or no findings as the source states them, for the method shown. A result given as binding can be weak or reduced; the word gives no strength.
B1: ADX_6077_F02 DG→DA mutant, alkylated (designed binder)
chain: GVSDVPRDLEVVAATPTSLLISWSDDYHAHRYYRITYGETGGNSPVQEFTVPGEHVTATISGLKPGVDYTITVYAVTYDAEKAATDWSISINYRTPC
modifications: C-terminal cysteine alkylated
B2: ADX_6077_F02 DG→DS mutant, alkylated (designed binder)
chain: B1 chain with A80S
modifications: C-terminal cysteine alkylated
B3: ADX_6077_F02 DG→SG mutant, alkylated (designed binder)
chain: VSDVPRDLEVVAATPTSLLISWSDDYHAHRYYRITYGETGGNSPVQEFTVPGEHVTATISGLKPGVDYTITVYAVTYSGEKAATDWSISINYRTPC
modifications: C-terminal cysteine alkylated
B4: ADX_6077_F02 DG→AG mutant, alkylated (designed binder)
chain: B1 chain with D79A, A80G
modifications: C-terminal cysteine alkylated
B5: ADX_6077_F02 DG→DL mutant, alkylated (designed binder)
chain: B1 chain with A80L
modifications: C-terminal cysteine alkylated
B6: ADX_6077_F02 DG→DV mutant, alkylated (designed binder)
chain: B1 chain with A80V
modifications: C-terminal cysteine alkylated
B7: ADX_6077_F02 DG→EG mutant, alkylated (designed binder)
chain: B1 chain with D79E, A80G
modifications: C-terminal cysteine alkylated
B8: 6077_F02-FITC (designed binder)
chain: MGVSDVPRDLEVVAATPTSLLISWSDDYHAHRYYRITYGETGGNSPVQEFTVPGEHVTATISGLKPGVDYTITVYAVTYDGEKAATDWSISINYRTPCHHHHHH
modifications: fluorescein-5-maleimide on the cysteine
B9: 6077_F02.dPEG (designed binder)
chain: B8 chain
modifications: dPEG (site and size not stated)
B10: 6077_F02-PEG3.4 (designed binder)
chain: B8 chain
modifications: PEG3.4 (site not stated)

Sequences of proteins named here, by UniProt entry; tags and fusion partners are left off. A change or cut given only in a name is not applied to a line headed by its entry.
UniProt Q8CFZ4: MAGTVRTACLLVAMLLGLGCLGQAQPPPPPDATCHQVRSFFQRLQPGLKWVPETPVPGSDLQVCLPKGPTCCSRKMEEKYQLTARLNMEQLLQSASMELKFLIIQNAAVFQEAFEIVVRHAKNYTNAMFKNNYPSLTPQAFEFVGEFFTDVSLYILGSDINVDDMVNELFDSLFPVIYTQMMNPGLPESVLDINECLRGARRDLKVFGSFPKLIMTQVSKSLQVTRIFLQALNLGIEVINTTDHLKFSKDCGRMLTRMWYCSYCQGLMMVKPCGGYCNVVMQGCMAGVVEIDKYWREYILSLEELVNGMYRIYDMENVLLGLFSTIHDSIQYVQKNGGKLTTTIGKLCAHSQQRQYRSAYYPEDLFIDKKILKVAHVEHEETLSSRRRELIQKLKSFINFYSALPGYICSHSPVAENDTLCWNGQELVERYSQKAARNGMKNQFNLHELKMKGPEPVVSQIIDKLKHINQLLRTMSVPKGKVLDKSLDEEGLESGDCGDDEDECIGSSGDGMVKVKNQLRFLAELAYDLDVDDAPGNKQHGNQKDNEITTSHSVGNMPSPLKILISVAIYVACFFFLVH

Molecular target: Recombinant murine glypican-3 (aa 25-557) (R&D Systems) (murine) (UniProt Q8CFZ4)
Assay: SPR (Biacore T100)

Binder	binding
B1	binds
B2	binds
B3	binds
B4	binds
B5	binds
B6	binds
B7	binds
B8	binds
B9	binds
B10	binds
